Laboratory results: PubChem BioAssay AID743121 (NCATS, 2013)

Aim: 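Knock-downs that sensitise breast cancer cells to camptothecin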 (primary screen)
Cells: MDA-MB-231 cells, a human breast cancer line
Reagents: single siRNA against human genes, 20 nM siRNA (0.8 pmol per well)
Time to read-out: 120 h (drug added 48 h after transfection, read 72 h later)
Challenge: camptothecin 20 nM (about EC30) for 72 h; vehicle 0.1% DMSO in parallel plates
Measured: 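Cell viability by ATP luminescence (CellTiter-Glo) as % of non-targeting siRNA wells, and the log2 ratio of viability without drug over viability with camptothecin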
Reading the numbers: log2 vehicle/camptothecin viability: higher = stronger sensitisation to camptothecin; viability with camptothecin: higher = more viable cells
Rule for the call: 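Each gene scored by redundant siRNA activity (RSA) over its individual siRNA ratios; a gene is called active at p < 0.001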
Shown is an unselected part of about 26,000 reagents. 167 of them (0.63%) count as active. 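Calls are per gene from RSA p-values that are not deposited; an individual active-marked siRNA can sensitise only weakly.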 The numbers tell different reagents against one gene apart. Not all columns of the deposit are shown.

no.	gene	reagent	log2 vehicle/camptothecin viability	viability with camptothecin (% of control)	activity call
1	GUK1 (guanylate kinase 1)	1	-0.427	65.5	inactive
2	GUK1 (guanylate kinase 1)	2	-0.262	68.1	inactive
3	GUK1 (guanylate kinase 1)	3	-0.168	79.5	inactive
4	GUK1 (guanylate kinase 1)	4	-0.612	48.5	inactive
5	BRMS1 (BRMS1 transcriptional repressor and anoikis regulator)	1	-0.162	111	inactive
6	BRMS1 (BRMS1 transcriptional repressor and anoikis regulator)	2	-0.132	50.2	inactive
7	BRMS1 (BRMS1 transcriptional repressor and anoikis regulator)	3	0.00333	42.6	inactive
8	BRMS1 (BRMS1 transcriptional repressor and anoikis regulator)	4	-0.0976	46.1	inactive
9	SMCHD1	1	-0.0418	107	inactive
10	SMCHD1	2	-0.129	101	inactive
11	SMCHD1	3	-0.241	67.1	inactive
12	SMCHD1	4	-0.0535	103	inactive
13	NEDD8 (NEDD8 ubiquitin like modifier)	1	0.377	91.2	inactive
14	NEDD8 (NEDD8 ubiquitin like modifier)	2	0.0238	90.2	inactive
15	NEDD8 (NEDD8 ubiquitin like modifier)	3	0.489	42.7	inactive
16	SIX3 (SIX homeobox 3)	1	-0.409	47.5	inactive
17	SIX3 (SIX homeobox 3)	2	0.0788	75.2	inactive
18	SIX3 (SIX homeobox 3)	3	-0.0105	98.2	inactive
19	SIX3 (SIX homeobox 3)	4	-0.193	91.8	inactive

3 entries from above in another layout:
| gene | reagent | log2 vehicle/camptothecin viability | viability with camptothecin (% of control) | activity call |
| --- | --- | --- | --- | --- |
| SIX3 (SIX homeobox 3) | 1 | -0.409 | 47.5 | inactive |
| SIX3 (SIX homeobox 3) | 2 | 0.0788 | 75.2 | inactive |
| SIX3 (SIX homeobox 3) | 3 | -0.0105 | 98.2 | inactive |

The listing continues.
no.	gene	reagent	log2 vehicle/camptothecin viability	viability with camptothecin (% of control)	activity call
20	CDKL5 (cyclin dependent kinase like 5)	1	-0.249	123	inactive
21	CDKL5 (cyclin dependent kinase like 5)	2	0.0558	60	inactive
22	CDKL5 (cyclin dependent kinase like 5)	3	-0.101	92.7	inactive
23	CDKL5 (cyclin dependent kinase like 5)	4	-0.499	67.9	inactive
24	USF2 (upstream transcription factor 2, c-fos interacting)	1	-0.82	69.5	inactive
25	USF2 (upstream transcription factor 2, c-fos interacting)	2	0.0765	96.4	inactive
26	USF2 (upstream transcription factor 2, c-fos interacting)	3	-0.407	67.9	inactive
27	TUBAL3 (tubulin alpha like 3)	1	-0.282	128	inactive
28	TUBAL3 (tubulin alpha like 3)	2	-0.429	104	inactive
29	TUBAL3 (tubulin alpha like 3)	3	-0.112	81.2	inactive
30	TUBAL3 (tubulin alpha like 3)	4	-0.0295	79.5	inactive
